According to the supplement of paper PMC12889115:
This is one part of the list. These are raw signals, not scaled to a control.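 First-pass screen: polymyxin B was added at a level that permeabilizes the Salmonella outer membrane while sparing the inner membrane. DMSO wells, with and without polymyxin B, defined maximum growth. Because plates differed from one another, each plate's data were ranked separately and the compounds with the lowest OD600 were carried forward as hits.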

System: Salmonella enterica serovar Typhimurium SL1344
Assay: bacterial growth OD600 after 18 h with compound and polymyxin B; higher = more bacterial growth (less inhibition)
Details: 50 µM, Mueller-Hinton broth

SMILES	bacterial growth OD600 (polymyxin B 1 µg/mL)	bacterial growth OD600 (polymyxin B 0.75 µg/mL)
CN(C(=O)c1cn(Cc2ccccc2Cl)nn1)C1CCCCC1	0.789	
COc1ccc(C(CC(=O)N(C)Cc2cnccn2)c2ccccc2)cc1 (stereo not given)	0.848	
COc1ccccc1CCNC(=O)Cc1ccc(N2CCC(NC(C)c3nccs3)CC2)cc1 (stereo not given)		0.985
COc1cc(NC(=O)CCC2CCCN(C3CCCCC3)C2)cc(OC)c1 (stereo not given)	0.737	
COc1cccc(CC2CN(C(=O)CCn3nc(C)cc3C)CCO2)c1 (stereo not given)		0.774
CCOC(=O)C1CCCN(C(=O)c2cc(NC(=O)COC)c3c(c2)ncn3CCc2ccccc2)C1 (stereo not given)		0.803
Cc1ccccc1-n1ncc2c1CC(C)(C)CC2NC(=O)CCN1CCCCO1 (stereo not given)	0.805	
CN(Cc1cccc(O)c1)CC1CCCN(CCc2ccccc2F)C1 (stereo not given)	0.804	
CC(C)N(Cc1nccn1C)C(=O)c1cn(Cc2ccccc2Cl)nn1	0.978	
C#Cc1cccc(C(=O)N2CCC3(CC2)c2ccccc2[C@@H](NC(=O)CC)[C@@H]3OCc2cccnc2)c1		0.816
C=CCNC(=O)N1CCC(N2CCCC(C(=O)NC3CC3)C2)CC1 (stereo not given)		0.862
CCOC(=O)C1(C/C=C/c2ccccc2)CCCN(C(=O)c2cc(C)n(C)n2)C1 (stereo not given)		0.44
COC(=O)c1ccc(CNC(=O)C2CCCN(c3nc(C)c4ccc(S(C)(=O)=O)cc4n3)C2)cc1 (stereo not given)		0.87
O=C(NC1CC(=O)N(C2CCCCCC2)C1)c1csnn1 (stereo not given)	0.939	
COc1ccc(CN2CCc3[nH]ncc3C2)cc1OCC(O)CN1CCCCCCC1 (stereo not given)		0.863
CCS(=O)(=O)c1ncc(CN2CCCCC2CCOC)n1Cc1ccccc1 (stereo not given)	0.965	
CO[C@H]1[C@H](NC(=O)c2ccsc2)c2ccccc2C12CCN(Cc1c(F)ccc(F)c1F)CC2		0.409
Cc1nn(C)c(C)c1CCC(=O)N1CCc2[nH]nc(-c3ccccc3F)c2C1		0.718
COc1ccc(-n2ncc(C(C)NCc3ccc(Cl)c(F)c3)c2C)cc1 (stereo not given)		0.76
COCc1ccc(CN2CCCC(CCC(=O)Nc3ccc(OC)cc3C)C2)o1 (stereo not given)	1.14	
CCC1CCCCN1C(=O)c1cn(CCOC)cc(C(=O)NCC2(c3ccccc3)CCCC2)c1=O (stereo not given)		0.01
COc1ccc(CN2C(=O)O[C@@H]3CN(C(=O)NC(C)C)C[C@@H]32)cc1OC		0.832
Cc1ccccc1CCC1CCCN(C(=O)CCc2cnn(C)c2)C1 (stereo not given)		0.624
O=C(CCC1CCCN(C(=O)c2ccc(Oc3ccccc3)o2)C1)NC1CC1 (stereo not given)	0.945	
CN(Cc1nc(CCc2ccccc2)no1)CC(O)c1ccccc1 (stereo not given)	0.893	
Cc1ncc2c(c1CNC(=O)Cc1ccsc1)CCN(C(=O)c1cccc(N3CCCC3=O)c1)C2		0.754
O=C(C1CCCC1)N1CCCC(N2CCN(c3ccccc3F)CC2)C1 (stereo not given)	0.836	
Cn1nccc1C(=O)NCC1Cc2cc(-c3cccc(OC(F)(F)F)c3)ccc2O1 (stereo not given)		0.008
COC1CCCN(C(=O)c2cc(Cn3c(C)nc4ccccc43)[nH]n2)C1 (stereo not given)	0.917	
CC(=O)c1cccc(NC(=O)NC2CCCN(C3CCCCCC3)C2)c1 (stereo not given)	0.93	

Reformatted as comma-separated lines: 2 of the compounds above
SMILES,bacterial growth OD600 (polymyxin B 1 µg/mL),bacterial growth OD600 (polymyxin B 0.75 µg/mL)
CCOC(=O)C1(C/C=C/c2ccccc2)CCCN(C(=O)c2cc(C)n(C)n2)C1 (stereo not given),,0.44
COC(=O)c1ccc(CNC(=O)C2CCCN(c3nc(C)c4ccc(S(C)(=O)=O)cc4n3)C2)cc1 (stereo not given),,0.87
